Each structure is given as a SMILES string.

Data set [1] can be described thus: Hydrolysis to HO., HPLC-UV analysis of POBN/CH3 hydroxylamine in solutions with DMSO and POBN.
The nature of data set [2]: ESR spin trapping of HO. with DMPO in solution of AS. As to conditions: 0.5 mM AS, phosphate buffer pH 7.4, 20° C.

In the case of `[Na+].[Na+].[O-][N+]([O-])=NO` [AS, sodium trioxodinitrate], in data set [1] (0.1 phosphate buffer pH 5, DMSO, POBN), the “yield of POBN/CH3 hydroxylamine (Scheme III, 9) from the initial AS concentration” value is listed as “approximately 10%”. Moreover, the “share of AS that hydrolyzes to hydroxyl radical” value in data set [1] (from the data in FIG. 4) is listed as “at least 10%”. The “AS-dependent production of HO. relative to that at pH 7.4” value in data set [1] (pH 5.5 versus pH 7.4, AS 15 mM, 30 minutes at 37° C.) was determined as 43 times. Moreover, the “AS-dependent production of HO. relative to that at pH 7.4” value in data set [1] (pH interval of about 4-6.5 versus pH 7.4) is on record as 50 times. Also, in data set [2], the “maximal steady state spin concentration as share of the initial concentration of AS” value is listed as 1% and the “maximal steady state spin concentration of DMPO/.OH (Scheme III, 5)” value is 5.4 µM.

Values taken from patent publication US20030068386A1, “Method of treating cancerous disease” (priority 2001, published 2003).
